Assay results published in PMC12713088, “Arabidopsis TRB Proteins Form Two Closely Related Complexes to Mediate H3K4me3 Demethylation and Transcriptional Repression” (Advanced Science, 2025).
No constants are given. Whether binding was seen depends on the method and setting. In cells and extracts the contact can be indirect. A yes stands for co-enrichment or nearness to the bait. Other partners may have been found.

By UniProt entry, the sequences of proteins in these tests, tags left out. Where a name states a change or a piece, a line headed by the entry shows the natural chain unless it says otherwise.
UniProt Q9LRN9: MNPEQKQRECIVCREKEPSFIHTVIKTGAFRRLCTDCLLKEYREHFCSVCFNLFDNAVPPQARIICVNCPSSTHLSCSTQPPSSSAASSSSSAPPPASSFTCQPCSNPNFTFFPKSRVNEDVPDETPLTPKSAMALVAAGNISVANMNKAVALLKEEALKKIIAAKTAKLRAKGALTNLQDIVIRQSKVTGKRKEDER
UniProt Q9FKY2: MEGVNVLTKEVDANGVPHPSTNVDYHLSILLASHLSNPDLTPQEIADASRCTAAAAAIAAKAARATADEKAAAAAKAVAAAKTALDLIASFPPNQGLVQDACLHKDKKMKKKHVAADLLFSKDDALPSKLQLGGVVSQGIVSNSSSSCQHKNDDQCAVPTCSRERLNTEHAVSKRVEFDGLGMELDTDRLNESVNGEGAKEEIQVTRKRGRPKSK
UniProt Q9SHL4: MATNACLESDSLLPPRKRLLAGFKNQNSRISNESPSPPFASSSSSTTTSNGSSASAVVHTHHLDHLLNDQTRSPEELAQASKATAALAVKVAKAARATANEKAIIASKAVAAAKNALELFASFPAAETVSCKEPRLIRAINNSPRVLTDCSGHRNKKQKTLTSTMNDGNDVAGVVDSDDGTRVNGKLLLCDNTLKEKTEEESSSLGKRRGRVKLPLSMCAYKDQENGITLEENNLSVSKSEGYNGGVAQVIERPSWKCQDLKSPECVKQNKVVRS
UniProt O81784: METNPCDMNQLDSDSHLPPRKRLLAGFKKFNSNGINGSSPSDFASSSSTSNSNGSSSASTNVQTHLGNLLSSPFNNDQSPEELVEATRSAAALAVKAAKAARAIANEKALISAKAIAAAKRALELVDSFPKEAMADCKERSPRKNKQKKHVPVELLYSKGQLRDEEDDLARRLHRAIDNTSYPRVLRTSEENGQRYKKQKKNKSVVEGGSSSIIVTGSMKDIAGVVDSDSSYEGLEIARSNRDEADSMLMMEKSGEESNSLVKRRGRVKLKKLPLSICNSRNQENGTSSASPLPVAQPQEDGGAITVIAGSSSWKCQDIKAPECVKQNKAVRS

What was measured:
Assay in all cases: affinity purification with mass spectrometry; Flag-tagged bait from transgenic Arabidopsis (12-day-old seedlings and flower tissues) on anti-FLAG M2 agarose, 4 °C overnight; 50 mM Tris-HCl pH 7.5, 150 mM NaCl, 5 mM MgCl2, 10% glycerol, 0.1% NP-40; eluted with 3xFLAG peptide
[1] = molecular target: T1, TELOMERE REPEAT BINDING PROTEIN 1 (TRB1), in Arabidopsis (AP-MS) (Arabidopsis thaliana) (UniProt Q8VWK4)
T1 sequence: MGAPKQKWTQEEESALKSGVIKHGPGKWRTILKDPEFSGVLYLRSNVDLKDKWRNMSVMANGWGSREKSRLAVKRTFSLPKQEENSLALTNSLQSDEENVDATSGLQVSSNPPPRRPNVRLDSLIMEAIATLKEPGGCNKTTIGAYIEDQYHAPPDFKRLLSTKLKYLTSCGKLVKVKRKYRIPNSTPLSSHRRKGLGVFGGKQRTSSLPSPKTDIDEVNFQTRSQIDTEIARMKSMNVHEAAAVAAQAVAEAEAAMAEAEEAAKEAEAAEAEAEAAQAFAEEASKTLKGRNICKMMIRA

[2] = molecular target: T2, TELOMERE REPEAT BINDING PROTEIN 2 (TRB2), in Arabidopsis (AP-MS) (Arabidopsis thaliana) (UniProt Q9FJW5)
T2 sequence: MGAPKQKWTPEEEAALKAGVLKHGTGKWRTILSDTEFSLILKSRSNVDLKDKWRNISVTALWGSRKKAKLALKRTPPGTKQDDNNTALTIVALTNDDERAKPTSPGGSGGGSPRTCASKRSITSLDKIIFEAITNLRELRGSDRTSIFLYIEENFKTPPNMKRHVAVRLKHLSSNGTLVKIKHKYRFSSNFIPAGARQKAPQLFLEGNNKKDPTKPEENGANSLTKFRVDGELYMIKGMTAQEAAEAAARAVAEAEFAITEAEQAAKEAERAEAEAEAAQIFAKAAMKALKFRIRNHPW

[3] = molecular target: T3, TELOMERE REPEAT BINDING PROTEIN 3 (TRB3), in Arabidopsis (AP-MS) (Arabidopsis thaliana) (UniProt Q9M2X3)
T3 sequence: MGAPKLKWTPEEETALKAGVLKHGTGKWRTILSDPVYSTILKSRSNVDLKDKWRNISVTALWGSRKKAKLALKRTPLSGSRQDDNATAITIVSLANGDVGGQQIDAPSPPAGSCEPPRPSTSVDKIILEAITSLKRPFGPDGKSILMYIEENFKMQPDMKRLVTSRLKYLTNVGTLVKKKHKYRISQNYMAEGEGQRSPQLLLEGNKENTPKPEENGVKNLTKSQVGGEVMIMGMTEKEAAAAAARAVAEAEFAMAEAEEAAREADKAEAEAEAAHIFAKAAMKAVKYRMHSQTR

[4] = molecular target: ZINC-FINGER-DOMAIN PROTEIN 2 (ZDP2), in Arabidopsis (AP-MS) (Arabidopsis thaliana) (UniProt Q9LRN9)
[5] = molecular target: HELIX-TURN-HELIX PROTEIN 3 (HTH3), in Arabidopsis (AP-MS) (Arabidopsis thaliana) (UniProt Q9FKY2)
[6] = molecular target: HELIX-TURN-HELIX PROTEIN 1 (HTH1), in Arabidopsis (AP-MS) (Arabidopsis thaliana) (UniProt Q9SHL4)
[7] = molecular target: HELIX-TURN-HELIX PROTEIN 2 (HTH2), in Arabidopsis (AP-MS) (Arabidopsis thaliana) (UniProt O81784)

Measured: binding

HELIX-TURN-HELIX PROTEIN 3 (HTH3), in Arabidopsis (AP-MS) (from UniProt Q9FKY2)
binds: [1] | [2] | [3]

HELIX-TURN-HELIX PROTEIN 1 (HTH1), in Arabidopsis (AP-MS) (from UniProt Q9SHL4)
binds: [1] | [2] | [3]

ZINC-FINGER-DOMAIN PROTEIN 2 (ZDP2), in Arabidopsis (AP-MS) (from UniProt Q9LRN9)
binds: [1] | [2] | [3]

HELIX-TURN-HELIX PROTEIN 2 (HTH2), in Arabidopsis (AP-MS) (from UniProt O81784)
binds: [1] | [2] | [3]

B1: TELOMERE REPEAT BINDING PROTEIN 1 (TRB1), in Arabidopsis (AP-MS) (protein, UniProt Q8VWK4 1-300)
chain: MGAPKQKWTQEEESALKSGVIKHGPGKWRTILKDPEFSGVLYLRSNVDLKDKWRNMSVMANGWGSREKSRLAVKRTFSLPKQEENSLALTNSLQSDEENVDATSGLQVSSNPPPRRPNVRLDSLIMEAIATLKEPGGCNKTTIGAYIEDQYHAPPDFKRLLSTKLKYLTSCGKLVKVKRKYRIPNSTPLSSHRRKGLGVFGGKQRTSSLPSPKTDIDEVNFQTRSQIDTEIARMKSMNVHEAAAVAAQAVAEAEAAMAEAEEAAKEAEAAEAEAEAAQAFAEEASKTLKGRNICKMMIRA
binds: [4] | [5] | [6] | [7]

B2: TELOMERE REPEAT BINDING PROTEIN 2 (TRB2), in Arabidopsis (AP-MS) (protein, UniProt Q9FJW5 1-299)
chain: MGAPKQKWTPEEEAALKAGVLKHGTGKWRTILSDTEFSLILKSRSNVDLKDKWRNISVTALWGSRKKAKLALKRTPPGTKQDDNNTALTIVALTNDDERAKPTSPGGSGGGSPRTCASKRSITSLDKIIFEAITNLRELRGSDRTSIFLYIEENFKTPPNMKRHVAVRLKHLSSNGTLVKIKHKYRFSSNFIPAGARQKAPQLFLEGNNKKDPTKPEENGANSLTKFRVDGELYMIKGMTAQEAAEAAARAVAEAEFAITEAEQAAKEAERAEAEAEAAQIFAKAAMKALKFRIRNHPW
binds: [4] | [5] | [6] | [7]

B3: TELOMERE REPEAT BINDING PROTEIN 3 (TRB3), in Arabidopsis (AP-MS) (protein, UniProt Q9M2X3 1-295)
chain: MGAPKLKWTPEEETALKAGVLKHGTGKWRTILSDPVYSTILKSRSNVDLKDKWRNISVTALWGSRKKAKLALKRTPLSGSRQDDNATAITIVSLANGDVGGQQIDAPSPPAGSCEPPRPSTSVDKIILEAITSLKRPFGPDGKSILMYIEENFKMQPDMKRLVTSRLKYLTNVGTLVKKKHKYRISQNYMAEGEGQRSPQLLLEGNKENTPKPEENGVKNLTKSQVGGEVMIMGMTEKEAAAAAARAVAEAEFAMAEAEEAAREADKAEAEAEAAHIFAKAAMKAVKYRMHSQTR
binds: [4] | [5] | [6] | [7]
